Measurements published in PMC6173745, “Aberrant expression of CITED2 promotes prostate cancer metastasis by activating the nucleolin-AKT pathway” (Nature Communications, 2018).
Results are given in words; binding and its absence hold for the method and conditions named. Binding seen in cells or lysates may run through a third protein. A yes stands for co-enrichment or nearness to the bait. Other partners may have been found. Tags and fused reporters may be left off the sequences shown.

Amino acid sequences for entries named in this document (tags omitted). A change or cut given only in a name is not applied to a line headed by its entry.
UniProt O14744: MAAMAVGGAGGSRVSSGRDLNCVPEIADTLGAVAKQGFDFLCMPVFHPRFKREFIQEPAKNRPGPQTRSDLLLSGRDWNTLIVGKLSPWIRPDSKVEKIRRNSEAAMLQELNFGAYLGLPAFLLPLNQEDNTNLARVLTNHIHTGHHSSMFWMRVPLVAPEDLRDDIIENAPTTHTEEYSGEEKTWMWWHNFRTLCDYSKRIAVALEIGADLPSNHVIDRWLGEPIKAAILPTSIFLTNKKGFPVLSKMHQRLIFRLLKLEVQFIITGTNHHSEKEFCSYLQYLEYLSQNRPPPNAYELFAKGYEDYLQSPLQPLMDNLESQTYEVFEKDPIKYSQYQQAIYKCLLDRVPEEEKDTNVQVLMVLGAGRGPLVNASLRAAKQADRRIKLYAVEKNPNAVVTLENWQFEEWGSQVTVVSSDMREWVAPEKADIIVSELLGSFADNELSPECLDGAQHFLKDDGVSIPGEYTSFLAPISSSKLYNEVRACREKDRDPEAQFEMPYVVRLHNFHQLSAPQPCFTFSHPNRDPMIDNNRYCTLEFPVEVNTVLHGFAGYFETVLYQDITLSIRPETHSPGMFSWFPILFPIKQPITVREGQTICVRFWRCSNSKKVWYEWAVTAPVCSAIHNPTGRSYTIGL
UniProt Q9BQA1: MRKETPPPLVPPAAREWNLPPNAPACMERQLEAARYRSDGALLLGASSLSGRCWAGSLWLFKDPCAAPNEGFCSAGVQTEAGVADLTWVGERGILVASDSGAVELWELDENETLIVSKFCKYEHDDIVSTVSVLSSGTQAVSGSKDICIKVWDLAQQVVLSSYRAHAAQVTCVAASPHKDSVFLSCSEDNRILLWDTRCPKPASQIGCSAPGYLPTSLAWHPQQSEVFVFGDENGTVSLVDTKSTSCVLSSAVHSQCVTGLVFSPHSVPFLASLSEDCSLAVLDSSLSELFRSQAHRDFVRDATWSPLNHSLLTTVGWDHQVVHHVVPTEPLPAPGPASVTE

T1: Flag/SBP-CITED2 (CBP/p300-interacting transactivator with E/D-rich carboxy-terminal domain-2) (UniProt Q99967)
T1 sequence: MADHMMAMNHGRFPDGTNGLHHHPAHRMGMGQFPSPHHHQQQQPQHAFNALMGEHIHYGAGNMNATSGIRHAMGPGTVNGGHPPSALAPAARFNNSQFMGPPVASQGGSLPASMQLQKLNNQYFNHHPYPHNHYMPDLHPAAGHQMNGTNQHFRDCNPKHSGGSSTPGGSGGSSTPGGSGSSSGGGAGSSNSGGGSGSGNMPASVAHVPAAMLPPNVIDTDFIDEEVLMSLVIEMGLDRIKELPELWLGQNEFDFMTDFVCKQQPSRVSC

B1: RIOK1, endogenous (protein, UniProt Q9BRS2 1-568)
chain: MDYRRLLMSRVVPGQFDDADSSDSENRDLKTVKEKDDILFEDLQDNVNENGEGEIEDEEEEGYDDDDDDWDWDEGVGKLAKGYVWNGGSNPQANRQTSDSSSAKMSTPADKVLRKFENKINLDKLNVTDSVINKVTEKSRQKEADMYRIKDKADRATVEQVLDPRTRMILFKMLTRGIITEINGCISTGKEANVYHASTANGESRAIKIYKTSILVFKDRDKYVSGEFRFRHGYCKGNPRKMVKTWAEKEMRNLIRLNTAEIPCPEPIMLRSHVLVMSFIGKDDMPAPLLKNVQLSESKARELYLQVIQYMRRMYQDARLVHADLSEFNMLYHGGGVYIIDVSQSVEHDHPHALEFLRKDCANVNDFFMRHSVAVMTVRELFEFVTDPSITHENMDAYLSKAMEIASQRTKEERSSQDHVDEEVFKRAYIPRTLNEVKNYERDMDIIMKLKEEDMAMNAQQDNILYQTVTGLKKDLSGVQKVPALLENQVEERTCSDSEDIGSSECSDTDSEEQGDHARPKKHTTDPDIDKKERKKMVKEAQREKRKNKIPKHVKKRKEKTAKTKKGK

target: T1, Flag/SBP-CITED2 (CBP/p300-interacting transactivator with E/D-rich carboxy-terminal domain-2); test: affinity purification with mass spectrometry; Flag/SBP-CITED2 overexpressed in HEK293T cells, pulled down with anti-FLAG or streptavidin affinity beads; co-purified proteins analysed by LC-MS/MS; proteins found in both precipitates

binding | Molecule
binds | PRMT5, endogenous (from UniProt O14744)
binds | WDR77, endogenous (from UniProt Q9BQA1 1-342)
binds | B1
